# This is one part of the list. Shown are side measurements of this screen, not its main read-out; they come without a call. Most of these compounds were active or inconclusive in the main read-out, so they are no random draw. Words in brackets tell the shape of the fitted curve; partial curves, single points and poor fits give uncertain potencies.
# Test: IkB Signaling
# Settings: ABC-DLBCL IkBa-CBG/CBR dual luciferase ratio (green luciferase fused to IkBa over red control in OCI-Ly3 lymphoma cells), 4 h
# Summary of the method: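 Curves were fitted separately to fusion (green), unfused (red) and ratio luminescence, then classed by r2, magnitude and activity. Cells: OCI-Ly3, 4 h compound plus doxycycline at 37C; 10 uM MG-132 defined full response.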
# [1] = measured here: control luc red channel unless noted
compound,measurement,setting,value
CCc1ccccc1NS(=O)(=O)c1ccc2nc(-c3ccccc3)[nH]c2c1,AC50,[1],"10 µM [falling, partial curve]"
CC(C)OCCCNC(=O)C(=O)Nc1c2c(nn1-c1ccccc1)CS(=O)(=O)C2,AC50,[1],"5.01 µM [rising, full curve, poor fit]"
CCOc1ccc2[nH]c(=O)c(C(c3nnnn3Cc3ccco3)N3CCCC(C)C3)cc2c1 (configuration not stated),AC50,[1],"25.1 µM [falling, partial curve]"
Cc1ccc2c(c1)N(CC(=O)NCCc1ccccc1)C(=O)CO2,AC50,[1],"0.2 µM [rising, full curve, poor fit]"
COc1ccccc1Nc1nc(N)nc(CN2CCC(Cc3ccccc3)CC2)n1,AC50,[1],"12.6 µM [falling, partial curve, poor fit]"
COc1ccc(-c2nc3ccccc3n3c(-c4cccc(C)c4)c4c(=O)n(C)c(=O)n(C)c4c23)cc1OC,AC50,[1],"12.6 µM [falling, partial curve]"
CC1CCN(S(=O)(=O)c2ccc(NC(=O)c3cccs3)cc2)CC1,AC50,[1],"25.1 µM [falling, partial curve]"
O=C(Cn1c(=O)n(CCc2ccccc2)c(=O)c2cccnc21)Nc1ccc(F)cc1,AC50,[1],"0.794 µM [falling, partial curve]"
CCCCNC(=O)CSc1nc2cc3c(cc2c(=O)n1CCCC(=O)NCCc1ccc(OC)c(OC)c1)OCO3,AC50,[1],"0.501 µM [rising, partial curve]"
CC1=C(C(=O)OC2CCCC2)C(c2c(Cl)cccc2Cl)CC(=O)N1 (configuration not stated),AC50,[1],"39.8 µM [falling, single point]"
CCc1ccc2oc(=O)cc(CN3CCN(c4ccc(F)cc4)CC3)c2c1,AC50,[1],"6.31 µM [falling, partial curve]"
Cc1cc(S(=O)(=O)C(CNC(=O)c2ccc(F)c(F)c2)c2cccs2)ccc1F (configuration not stated),AC50,[1],"20 µM [falling, single point]"
COc1ccc(C(=O)COC(=O)CCCn2c(=O)oc3ccccc32)cc1,AC50,[1],"25.1 µM [falling, single point]"
Cc1ccc(NC(=O)c2ccccc2O)cc1,AC50,[1],"15.8 µM [falling, partial curve]"
CC(=O)N1CCCc2cc(S(=O)(=O)N3CCCC(C(=O)N4CCN(c5ccccc5)CC4)C3)ccc21 (configuration not stated),AC50,[1],"31.6 µM [falling, partial curve]"
Cc1ccc(-c2ccc(=O)n(CC(=O)NCCc3ccccc3)n2)cc1,AC50,[1],"39.8 µM [falling, single point]"
O=S(=O)(NCCc1csc2nc(-c3ccccc3)nn12)c1cc(F)ccc1F,AC50,[1],"39.8 µM [falling, single point]"
Cc1ccc(NC(=O)C(=O)NCC(c2cccnc2)N2CCN(Cc3ccccc3)CC2)cc1F (configuration not stated),AC50,[1],"20 µM [falling, single point]"
Cc1cccc(/C=C/c2onc(C)c2S(=O)(=O)N2CCC(C(=O)N3CCCCC3)CC2)c1,AC50,[1],"31.6 µM [falling, partial curve, poor fit]"
COc1ccc(-c2[nH]c(-c3ccc(Cl)cc3)nc2SCC(=O)NCC2CCCO2)cc1 (configuration not stated),AC50,[1],"25.1 µM [falling, partial curve]"
CCc1ccccc1NS(=O)(=O)c1ccc2[nH]cc(C(=O)N(CC)Cc3ccccc3)c(=O)c2c1,AC50,[1],"15.8 µM [falling, partial curve]"
Cc1ccc(C)c(N2CCN(S(=O)(=O)c3ccc4c(c3)C(C(C)C)C(=O)N4)CC2)c1 (configuration not stated),AC50,[1],"12.6 µM [falling, partial curve]"
CCc1ccc(C2CC(=O)c3c([nH]c(C(=O)OC4CCCC4)c3C)C2)cc1 (configuration not stated),AC50,[1],"3.16 µM [rising, single point]"
COc1cccc(-c2nc(CS(=O)(=O)CC(=O)N3CCN(c4cc(C)ccc4C)CC3)c(C)o2)c1,AC50,[1],"10 µM [falling, partial curve]"
COc1ccc(OC)c(C2CC(=O)Nc3c2c(=O)[nH]c2ncnn32)c1 (configuration not stated),AC50,[1],"0.0251 µM [rising, full curve]"
COc1ccc(C2NC(=O)N(C)C3=C2C(=O)N(c2ccc(C(=O)O)cc2)C3)cc1 (configuration not stated),AC50,[1],"5.01 µM [rising, partial curve]"
CCC(C(=O)N1CCN(c2cccc(Cl)c2)CC1)c1ccccc1 (configuration not stated),AC50,[1],"10 µM [falling, partial curve]"
Cc1ccc2c(CNCc3ccc(C)o3)c(C(=O)O)n(Cc3ccccc3C)c2c1,AC50,[1],"25.1 µM [falling, single point]"
COC(=O)c1ccccc1NC(=O)C1=CC(c2cccs2)=NS(=O)(=O)N1C,AC50,[1],"20 µM [falling, single point]"
Cc1ccc(S(=O)(=O)c2nnn(-c3ccc(F)c(Cl)c3)c2N)cc1,AC50,[1],"25.1 µM [falling, partial curve]"
CCOc1ccc2nc(N3CCCC(C(=O)NCCc4ccc(OCC)c(OCC)c4)C3)sc2c1 (configuration not stated),AC50,[1],"20 µM [falling, partial curve]"
Cc1cccc(C)c1Nc1c(-c2ccccn2)nc2c(C)cccn12,AC50,[1],"2.51 µM [falling, full curve, poor fit]"
O=C(Cc1cccs1)NC1CC(=O)N(c2ccc(F)cc2)C1 (configuration not stated),AC50,measured here: IkB-luc green channel,"31.6 µM [rising, single point]"
same,AC50,measured here: control luc red channel,"31.6 µM [rising, single point]"
COc1ccc(-c2csc3ncnc(Nc4cccc(OC)c4)c23)cc1,AC50,[1],"39.8 µM [falling, partial curve]"
CSc1cccc(NC(=O)Nc2ccccc2OCc2cc(=O)n3cc(C)ccc3n2)c1,AC50,[1],"3.16 µM [falling, full curve]"
O=C(c1cc2ccccc2oc1=O)N(Cc1ccc2c(c1)OCO2)Cc1ccco1,AC50,[1],"25.1 µM [falling, partial curve]"
CCC(=O)N1CCc2cc(Br)cc(S(=O)(=O)CCC(=O)N3CCN(c4cccc(C)c4)C(C)C3)c21 (configuration not stated),AC50,[1],"5.01 µM [falling, partial curve]"
Cc1ccc2c(c1)C(c1ccc(F)cc1)N(C(=O)c1ccc(S(=O)(=O)N3CCCCC3)cc1)CC(=O)N2 (configuration not stated),AC50,[1],"10 µM [falling, partial curve]"
CC1=C(C(=O)OC2CCCCCCC2)C(c2cccc(O)c2)NC(=O)N1 (configuration not stated),AC50,[1],"25.1 µM [falling, partial curve]"
O=C(NCc1ccc(Cl)cc1)NCc1noc2ccccc12,AC50,[1],"1 µM [rising, full curve]"
COc1ccc(C)cc1NC(=O)C1CCCN(c2ncnc3onc(C)c23)C1 (configuration not stated),AC50,[1],"15.8 µM [falling, partial curve, poor fit]"
Cc1cccc(NC(=O)CCn2cnc3ccccc3c2=O)c1,AC50,[1],"39.8 µM [rising, partial curve, poor fit]"
CCOC(=O)C1=C(CS(=O)(=O)c2ccc(F)c(C)c2)NC(=O)NC1c1ccccc1OC (configuration not stated),AC50,[1],"12.6 µM [falling, partial curve]"
CCCc1nnc(NC(=O)c2nc(SCC)ncc2Cl)s1,AC50,[1],"39.8 µM [falling, single point]"
CCCCn1c(=O)n(-c2cc(OC)ccc2OC)c(=O)c2c3c(sc21)CN(C(C)=O)CC3,AC50,[1],"31.6 µM [falling, single point]"
O=C(CC1N=C2c3ccccc3N=C(SCc3ccccc3Cl)N2C1=O)NCCc1ccccc1 (configuration not stated),AC50,[1],"12.6 µM [falling, partial curve]"
CCOc1ccc(-n2nc3ccc(NC(=O)c4ccc(OC)c(Cl)c4)cc3n2)cc1,AC50,[1],"39.8 µM [falling, single point]"
CCN=C(NCC)SC1CC(=O)N(c2cccc(OCC)c2)C1=O (configuration not stated),AC50,[1],"10 µM [falling, partial curve]"
Cc1ccc(Nc2c(-c3ccc(C)s3)nc3ccccn23)cc1,AC50,[1],"31.6 µM [falling, single point]"
COC(=O)c1cccc(NC2=NS(=O)(=O)c3ccccc32)c1,AC50,[1],"2.51 µM [rising, partial curve]"
Cc1cc(Cl)ccc1NC(=O)Cc1ccc(NC(=O)N2CCCCc3ccccc32)cc1,AC50,[1],"25.1 µM [falling, single point]"
COc1ccc(C)cc1NC(=O)C1CCN(S(=O)(=O)c2cc(Br)cc3c2N(C(C)=O)CC3)CC1,AC50,[1],"15.8 µM [falling, single point]"
CCc1ccc(C(=O)c2cn(CC(=O)Nc3cccc(OC)c3)c3cc4c(cc3c2=O)OCO4)cc1,AC50,[1],"12.6 µM [falling, partial curve]"
CCn1c(SCc2c(F)cccc2Cl)nc(=O)c2c(C(=O)OC)cc(C3CC3)nc21,AC50,[1],"25.1 µM [falling, partial curve]"
NCCCCCCNS(=O)(=O)c1ccc2c(Cl)cccc2c1,AC50,[1],"39.8 µM [falling, partial curve, poor fit]"
CCOC(=O)c1c(C)oc2nc(C)nc(NCC3CCN(Cc4ccc(C)cc4)CC3)c12,AC50,[1],"39.8 µM [falling, single point]"
Cc1nn(C)cc1CN(C)C(=O)c1cc(-c2ccccc2)nc2ccc(Br)cc12,AC50,[1],"10 µM [falling, partial curve]"
O=C(Nc1cccc(C(F)(F)F)c1)c1cnn(-c2cccc(F)c2)c1C1CCNCC1,AC50,[1],"0.398 µM [rising, partial curve]"
CCOc1ccc(CCNC(=O)c2oc(=O)c3ccccc3c2-c2ccc(C)cc2)cc1OCC,AC50,[1],"25.1 µM [falling, single point]"
CC(C)(C)c1ccc(C(=O)NCCc2csc(-c3ccc(Cl)cc3)n2)cc1,AC50,[1],"2.51 µM [falling, full curve]"
CCOC(=O)Cn1c(=O)n(CC2CCCO2)c2nc(-c3ccccc3)nc(C(N)=O)c21 (configuration not stated),AC50,[1],"25.1 µM [falling, partial curve]"

# Retrieved one by one from the list above:
compound,measurement,setting,value
Cc1ccc(Nc2c(-c3ccc(C)s3)nc3ccccn23)cc1,AC50,[1],"31.6 µM [falling, single point]"
Cc1cc(Cl)ccc1NC(=O)Cc1ccc(NC(=O)N2CCCCc3ccccc32)cc1,AC50,[1],"25.1 µM [falling, single point]"
CCOc1ccc2[nH]c(=O)c(C(c3nnnn3Cc3ccco3)N3CCCC(C)C3)cc2c1 (configuration not stated),AC50,[1],"25.1 µM [falling, partial curve]"
COc1cccc(-c2nc(CS(=O)(=O)CC(=O)N3CCN(c4cc(C)ccc4C)CC3)c(C)o2)c1,AC50,[1],"10 µM [falling, partial curve]"

# Source: PubChem BioAssay AID445 (National Center for Advancing Translational Sciences (NCATS), 2006)
